# Data taken from article PMC12068309.
# Sequences of proteins named here, by UniProt entry; tags and fusion partners are left off. A change or cut given only in a name is not applied to a line headed by its entry.
# UniProt Q70Z35: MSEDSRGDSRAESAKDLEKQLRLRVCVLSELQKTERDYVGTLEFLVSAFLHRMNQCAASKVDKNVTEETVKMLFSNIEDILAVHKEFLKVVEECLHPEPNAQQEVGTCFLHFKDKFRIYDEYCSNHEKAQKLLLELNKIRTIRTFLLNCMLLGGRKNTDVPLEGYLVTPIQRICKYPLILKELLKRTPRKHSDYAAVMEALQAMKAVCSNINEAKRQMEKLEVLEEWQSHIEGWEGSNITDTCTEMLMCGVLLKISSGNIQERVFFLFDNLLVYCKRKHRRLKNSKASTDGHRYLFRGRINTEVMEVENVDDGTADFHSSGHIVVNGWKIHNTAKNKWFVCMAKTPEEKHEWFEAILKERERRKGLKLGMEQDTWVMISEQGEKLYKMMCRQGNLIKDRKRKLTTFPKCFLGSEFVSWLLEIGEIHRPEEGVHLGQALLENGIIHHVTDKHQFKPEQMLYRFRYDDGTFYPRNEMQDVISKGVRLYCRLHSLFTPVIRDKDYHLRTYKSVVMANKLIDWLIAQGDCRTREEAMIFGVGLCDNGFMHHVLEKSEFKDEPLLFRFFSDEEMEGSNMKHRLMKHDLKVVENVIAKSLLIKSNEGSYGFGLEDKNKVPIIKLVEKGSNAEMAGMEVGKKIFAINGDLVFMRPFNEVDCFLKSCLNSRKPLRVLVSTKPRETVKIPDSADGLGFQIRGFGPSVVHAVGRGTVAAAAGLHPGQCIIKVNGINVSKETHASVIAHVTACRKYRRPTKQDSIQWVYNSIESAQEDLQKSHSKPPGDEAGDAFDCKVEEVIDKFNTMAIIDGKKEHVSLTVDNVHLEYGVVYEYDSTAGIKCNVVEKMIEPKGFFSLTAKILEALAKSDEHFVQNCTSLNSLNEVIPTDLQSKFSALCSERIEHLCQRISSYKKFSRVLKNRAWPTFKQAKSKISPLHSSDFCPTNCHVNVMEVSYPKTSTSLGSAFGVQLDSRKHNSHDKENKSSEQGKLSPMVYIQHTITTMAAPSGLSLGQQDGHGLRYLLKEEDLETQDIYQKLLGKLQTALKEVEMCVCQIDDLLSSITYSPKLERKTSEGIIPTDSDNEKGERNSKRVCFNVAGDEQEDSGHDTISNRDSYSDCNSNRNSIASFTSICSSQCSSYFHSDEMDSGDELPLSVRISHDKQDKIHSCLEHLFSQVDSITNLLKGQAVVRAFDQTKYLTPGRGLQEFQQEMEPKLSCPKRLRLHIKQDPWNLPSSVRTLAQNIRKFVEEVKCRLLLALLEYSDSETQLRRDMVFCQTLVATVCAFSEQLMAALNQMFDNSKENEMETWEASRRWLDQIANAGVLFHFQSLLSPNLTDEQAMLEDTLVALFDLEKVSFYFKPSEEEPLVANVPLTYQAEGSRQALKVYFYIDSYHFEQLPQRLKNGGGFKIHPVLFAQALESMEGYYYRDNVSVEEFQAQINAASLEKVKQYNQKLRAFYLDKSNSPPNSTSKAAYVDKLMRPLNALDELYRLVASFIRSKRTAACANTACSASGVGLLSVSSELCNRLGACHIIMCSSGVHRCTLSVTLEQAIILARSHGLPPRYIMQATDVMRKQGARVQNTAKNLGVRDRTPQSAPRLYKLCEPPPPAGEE
# UniProt O43865: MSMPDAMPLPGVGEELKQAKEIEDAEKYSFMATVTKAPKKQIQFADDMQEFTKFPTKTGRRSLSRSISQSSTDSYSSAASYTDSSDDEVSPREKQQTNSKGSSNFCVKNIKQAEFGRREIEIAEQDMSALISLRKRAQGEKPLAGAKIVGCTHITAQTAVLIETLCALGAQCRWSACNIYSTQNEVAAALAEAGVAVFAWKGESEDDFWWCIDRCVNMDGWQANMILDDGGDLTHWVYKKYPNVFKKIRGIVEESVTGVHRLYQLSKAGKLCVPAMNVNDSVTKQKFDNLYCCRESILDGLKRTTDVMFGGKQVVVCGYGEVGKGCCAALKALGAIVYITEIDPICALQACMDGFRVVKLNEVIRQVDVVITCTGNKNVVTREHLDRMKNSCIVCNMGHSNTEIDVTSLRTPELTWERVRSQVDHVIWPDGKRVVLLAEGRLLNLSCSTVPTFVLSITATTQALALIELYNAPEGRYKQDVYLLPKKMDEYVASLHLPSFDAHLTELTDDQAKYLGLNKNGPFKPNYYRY
# Results are given in words; binding and its absence hold for the method and conditions named. In cells and extracts the contact can be indirect. Some binding calls cover weakened binding; strength is not graded here.
# Target: Flag-PREX2 (UniProt Q70Z35)
# Experiment: co-IP; exogenous proteins in HEK293T; IP with Flag antibody, detected by HA antibody
row,binding,Substance
1,no binding,HA-AHCYL1 truncation 1-104 (from UniProt O43865 1-104) (domain or fragment)
2,binds,HA-AHCYL1 truncation 104-530 (from UniProt O43865 104-530) (domain or fragment)
